# Measured values reported in paper PMC5705118.
# Target: HCV NS4B protein, genotype 3a (S52-SG-Feo subgenomic replicon) (hepatitis C virus genotype 3a (S52))
# Experiment: co-IP; lysate (Cellytic MT) of Huh7.5/SGR-Feo-JFH-1 or Huh7.5 S52/SG-Feo cells; NS4B precipitated with the antibody MA17616 overnight at 4°C and Protein A agarose; washed 5x with 25 mM Tris, 150 mM NaCl; western blot for HSPB8; control without the NS4B antibody
binder,measurement,value
"HSPB8 (Heat Shock Protein Family B Member 8) (protein, UniProt Q9UJY1 1-196) MADGQMPFSCHYPSRLRRDPFRDSPLSSRLLDDGFGMDPFPDDLTASWPDWALPRLSSAWPGTLRSGMVPRGPTATARFGVPAEGRTPPPFPGEPWKVCVNVHSFKPEELMVKTKDGYVEVSGKHEEKQQEGGIVSKNFTKKIQLPAEVDPVTVFASLSPEGLLIIEAPQVPPYSTFGESSFNNELPQDSQEVTCT",binding,binds

# These are yes or no findings as the source states them, for the method shown. Binding seen in cells or lysates may run through a third protein. Binding can be weak; no strength is given.
